Article PMC11019928

Target: T1, CviR (Chromobacterium violaceum) (UniProt Q7NQP7)
T1 sequence: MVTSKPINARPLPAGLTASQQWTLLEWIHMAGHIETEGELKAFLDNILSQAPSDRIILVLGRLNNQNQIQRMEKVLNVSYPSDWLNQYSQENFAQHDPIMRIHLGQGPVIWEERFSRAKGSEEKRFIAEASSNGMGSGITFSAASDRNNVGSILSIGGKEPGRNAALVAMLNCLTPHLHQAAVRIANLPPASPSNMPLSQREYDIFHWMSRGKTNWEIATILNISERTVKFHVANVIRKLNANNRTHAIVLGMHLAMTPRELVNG
Assay: two-hybrid; yeast double-hybrid in S. cerevisiae AH109; VioS as prey (activation domain, pGADTK7), CviR as bait (DNA-binding domain, pGBKT7); growth on SD-WLHA (without leucine, tryptophan, histidine and adenine)

binding: binds
Substance: VioS (Chromobacterium violaceum)

No constants are given. Whether binding was seen depends on the method and setting. Binding calls can cover weak binding; strength is not graded here.
